Measurements reported in BindingDB's records for PubMed 1586393 (U. 109, 1992).

The chains behind the UniProt entries cited, without tags or fusion partners. A line that says so, or that is headed by a name, gives the form on record, which may keep a tag or linker.
UniProt P35462, as listed by the source: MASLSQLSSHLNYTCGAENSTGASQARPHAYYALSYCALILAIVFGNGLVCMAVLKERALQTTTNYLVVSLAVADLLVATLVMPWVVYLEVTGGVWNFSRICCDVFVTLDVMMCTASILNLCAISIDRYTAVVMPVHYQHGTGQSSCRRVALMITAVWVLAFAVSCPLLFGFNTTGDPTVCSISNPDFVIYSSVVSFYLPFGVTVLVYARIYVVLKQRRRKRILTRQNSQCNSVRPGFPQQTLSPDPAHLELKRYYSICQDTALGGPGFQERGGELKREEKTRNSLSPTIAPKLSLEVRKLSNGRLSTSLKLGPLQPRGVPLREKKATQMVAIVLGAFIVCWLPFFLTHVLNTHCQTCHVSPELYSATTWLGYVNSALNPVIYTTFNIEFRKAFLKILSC

Molecular target: D(3) dopamine receptor (Homo sapiens, UniProt P35462)

Compound CN1CCN(CCCN2c3ccccc3Sc3ccc(Cl)cc32)CC1 [2-chloro-10-[3-(4-methylpiperazin-1-yl)propyl]phenothiazine;ethane-1,2-disulfonic acid] has a Ki of 1.8 nM.
